In paper PMC11482093:
The exact form of at least one protein or probe is not confirmed.

Target: cardiac troponin I (cTnI) (UniProt P19429)
Experiment: binding assay
Details: value from ref 33, aptamer used here as receptor on SOI-biosensor; Aptamer folded in 0.15 M NaCl, 50 mM K-Na phosphate pH 7.0, 1 mM MgCl2 (90 C 5 min, then room temperature 15 min); single-stranded DNA

GGAAGACAAGACATCGGGAGGGAGGGAGGGCAGTCTAGTCTCATGTGTTTCCATGGTTC [TnAp12t2]
Kd: 6 nM
